Experimental data reported in paper PMC5778034.
These are yes or no findings as the source states them, for the method shown. Binding seen in cells or lysates may run through a third protein. Some results given as binding are weak or reduced against the parent protein; the word gives no strength. One block for each substance: values may come before it.

Sequences of proteins named here, by UniProt entry; tags and fusion partners are left off.
UniProt O43684: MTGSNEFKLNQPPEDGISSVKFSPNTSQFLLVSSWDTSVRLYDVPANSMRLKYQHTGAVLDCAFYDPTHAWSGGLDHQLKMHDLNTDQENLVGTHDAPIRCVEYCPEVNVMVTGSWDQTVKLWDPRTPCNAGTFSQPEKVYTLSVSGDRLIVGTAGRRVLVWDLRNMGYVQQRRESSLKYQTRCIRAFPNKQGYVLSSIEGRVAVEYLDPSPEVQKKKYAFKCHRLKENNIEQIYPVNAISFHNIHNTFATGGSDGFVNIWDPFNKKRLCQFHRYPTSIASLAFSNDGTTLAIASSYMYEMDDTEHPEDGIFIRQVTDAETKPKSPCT
UniProt P14635: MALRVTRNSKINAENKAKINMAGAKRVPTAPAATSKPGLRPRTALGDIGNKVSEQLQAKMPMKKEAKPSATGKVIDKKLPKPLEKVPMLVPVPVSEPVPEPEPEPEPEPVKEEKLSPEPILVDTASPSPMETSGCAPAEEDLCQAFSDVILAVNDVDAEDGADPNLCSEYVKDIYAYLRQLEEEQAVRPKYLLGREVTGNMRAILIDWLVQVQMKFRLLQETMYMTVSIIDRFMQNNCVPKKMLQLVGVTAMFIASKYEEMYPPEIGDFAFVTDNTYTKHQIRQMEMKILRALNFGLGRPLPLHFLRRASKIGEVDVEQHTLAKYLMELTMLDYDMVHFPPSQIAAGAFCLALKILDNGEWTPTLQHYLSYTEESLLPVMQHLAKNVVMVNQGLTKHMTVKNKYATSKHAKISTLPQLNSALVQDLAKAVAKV
UniProt P06493: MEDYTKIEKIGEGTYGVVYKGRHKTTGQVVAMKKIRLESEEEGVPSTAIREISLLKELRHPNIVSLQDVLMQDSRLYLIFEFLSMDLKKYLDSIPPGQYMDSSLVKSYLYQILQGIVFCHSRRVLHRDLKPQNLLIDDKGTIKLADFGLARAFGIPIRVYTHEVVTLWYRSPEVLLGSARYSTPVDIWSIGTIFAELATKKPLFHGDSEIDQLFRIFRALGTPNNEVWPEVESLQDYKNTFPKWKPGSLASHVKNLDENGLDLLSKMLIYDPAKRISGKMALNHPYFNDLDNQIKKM
UniProt Q9Y5X1: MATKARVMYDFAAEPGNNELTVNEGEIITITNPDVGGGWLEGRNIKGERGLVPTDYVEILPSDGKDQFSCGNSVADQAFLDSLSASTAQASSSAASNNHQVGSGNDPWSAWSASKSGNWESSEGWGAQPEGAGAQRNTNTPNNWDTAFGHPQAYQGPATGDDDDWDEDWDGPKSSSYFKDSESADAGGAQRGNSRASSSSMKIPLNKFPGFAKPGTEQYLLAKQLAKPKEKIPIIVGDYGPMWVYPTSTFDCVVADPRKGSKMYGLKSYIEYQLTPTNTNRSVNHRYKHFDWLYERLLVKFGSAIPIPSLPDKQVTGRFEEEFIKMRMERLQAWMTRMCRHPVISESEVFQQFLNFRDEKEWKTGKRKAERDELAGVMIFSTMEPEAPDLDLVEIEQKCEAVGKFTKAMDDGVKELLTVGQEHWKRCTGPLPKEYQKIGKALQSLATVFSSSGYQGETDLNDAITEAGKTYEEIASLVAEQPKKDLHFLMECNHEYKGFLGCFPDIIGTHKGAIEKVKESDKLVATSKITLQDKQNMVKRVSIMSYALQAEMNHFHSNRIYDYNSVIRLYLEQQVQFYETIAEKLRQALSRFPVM
UniProt P31749: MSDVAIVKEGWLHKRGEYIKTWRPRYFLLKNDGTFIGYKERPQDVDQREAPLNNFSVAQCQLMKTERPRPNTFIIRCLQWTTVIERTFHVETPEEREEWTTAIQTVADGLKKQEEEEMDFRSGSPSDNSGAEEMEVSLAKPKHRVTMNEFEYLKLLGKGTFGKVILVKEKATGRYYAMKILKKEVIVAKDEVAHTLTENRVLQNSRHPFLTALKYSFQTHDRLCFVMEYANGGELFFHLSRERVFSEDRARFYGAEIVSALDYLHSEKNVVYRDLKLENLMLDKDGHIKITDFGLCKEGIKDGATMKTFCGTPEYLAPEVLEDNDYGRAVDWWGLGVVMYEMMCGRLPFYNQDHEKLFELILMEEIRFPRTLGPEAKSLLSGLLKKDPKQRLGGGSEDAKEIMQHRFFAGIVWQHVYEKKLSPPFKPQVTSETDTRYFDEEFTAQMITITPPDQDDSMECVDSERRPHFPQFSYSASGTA

What was measured:
[1] = biological target: T1, API5 (human (endogenous in HEK293)) (UniProt Q9BZZ5); assay: co-IP; reverse co-IP: antibodies against the partners on Dynabeads protein A, lysate 2 hours at 4 °C, washes with PBST; western blot with anti-Akt1 antibody
T1 sequence: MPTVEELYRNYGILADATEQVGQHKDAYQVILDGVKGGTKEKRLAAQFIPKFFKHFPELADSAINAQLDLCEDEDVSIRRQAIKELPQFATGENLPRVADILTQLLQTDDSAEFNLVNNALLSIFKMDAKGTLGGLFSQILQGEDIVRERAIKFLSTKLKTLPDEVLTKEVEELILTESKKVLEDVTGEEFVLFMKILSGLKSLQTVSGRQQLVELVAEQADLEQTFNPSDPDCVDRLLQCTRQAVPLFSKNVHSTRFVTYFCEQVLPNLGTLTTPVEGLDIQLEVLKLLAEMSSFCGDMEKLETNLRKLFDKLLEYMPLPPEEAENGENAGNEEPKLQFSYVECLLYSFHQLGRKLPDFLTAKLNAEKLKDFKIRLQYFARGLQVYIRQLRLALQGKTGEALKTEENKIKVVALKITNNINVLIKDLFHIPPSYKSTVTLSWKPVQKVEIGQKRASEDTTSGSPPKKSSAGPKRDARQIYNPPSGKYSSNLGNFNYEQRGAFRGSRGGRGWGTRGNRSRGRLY

[2] = biological target: BUB3 (human (endogenous in HEK293)) (UniProt O43684); assay: as above
[3] = biological target: CCNB1 (human (endogenous in HEK293)) (UniProt P14635); assay: as above
[4] = biological target: CDK1 (human (endogenous in HEK293)) (UniProt P06493); assay: as above
[5] = biological target: SH3PX1 (human (endogenous in HEK293)) (UniProt Q9Y5X1); assay: as above
[6] = biological target: Akt1 (PKBα) (human) (UniProt P31749); assay: co-IP; asynchronous Akt1-expressing HEK293 cells lysed in IP buffer; affinity purification by the SH tag of Akt1; eluates probed by western blot with antibodies against the partners

- binding [1]: binds
- binding [2]: binds
- binding [3]: binds
- binding [4]: binds
- binding [5]: binds
Substance: Akt1 (PKBα) (from UniProt P31749 1-480)

- binding [6]: binds
Substance: BUB3 (from UniProt O43684 1-328)

- binding [6]: binds
Substance: CCNB1 (from UniProt P14635 1-433)

- binding [6]: binds
Substance: SH3PX1 (from UniProt Q9Y5X1 1-595)
